Data: patent US20240059752A1 (ZHEJIANG DOER BIOLOGICS CO., LTD., priority 2020, published 2024)
At least one structure is not confirmed: it was looked up by name or label, or the drawing left a doubt. Some entries repeat one wording, which the source may state once for all of them. Some of these results come from one statement about several compounds together. Some ranges recur; such a range may be that of the whole group of compounds. *1 amine or outer side, *2 acyl side, *3 side chain or, on linkers, in order; H or OH if unused. Where a SMILES comes first, the peptide text is derived from it. Side-chain parts run from the residue outwards. [ ]: non-standard residue; d: D form. The star is where a group is joined. C20 diacid = O=C(O)CCCCCCCCCCCCCCCCCCC(=O)*; γGlu = O=C(O)[C@H](CCC(=O)[*:2])N[*:1]; AEEA = NCCOCCOCC(=O)O; Aib = CC(C)(N)C(=O)O

Amino acid sequences for entries named in this document (tags omitted). Residues count along the entry.
UniProt P47871, 26-477: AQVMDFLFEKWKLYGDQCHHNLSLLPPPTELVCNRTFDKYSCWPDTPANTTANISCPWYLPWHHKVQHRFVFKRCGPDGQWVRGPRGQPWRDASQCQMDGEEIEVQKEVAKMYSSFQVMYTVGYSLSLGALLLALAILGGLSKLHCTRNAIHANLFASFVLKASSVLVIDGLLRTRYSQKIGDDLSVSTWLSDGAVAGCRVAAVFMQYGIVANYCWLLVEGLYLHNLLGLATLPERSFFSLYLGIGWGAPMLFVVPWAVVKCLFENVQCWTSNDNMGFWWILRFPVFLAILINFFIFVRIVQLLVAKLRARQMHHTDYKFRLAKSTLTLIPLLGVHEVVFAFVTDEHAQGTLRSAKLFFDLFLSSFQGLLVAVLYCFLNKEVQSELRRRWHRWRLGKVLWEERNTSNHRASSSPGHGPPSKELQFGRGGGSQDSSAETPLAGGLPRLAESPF
UniProt P43220, 24-463: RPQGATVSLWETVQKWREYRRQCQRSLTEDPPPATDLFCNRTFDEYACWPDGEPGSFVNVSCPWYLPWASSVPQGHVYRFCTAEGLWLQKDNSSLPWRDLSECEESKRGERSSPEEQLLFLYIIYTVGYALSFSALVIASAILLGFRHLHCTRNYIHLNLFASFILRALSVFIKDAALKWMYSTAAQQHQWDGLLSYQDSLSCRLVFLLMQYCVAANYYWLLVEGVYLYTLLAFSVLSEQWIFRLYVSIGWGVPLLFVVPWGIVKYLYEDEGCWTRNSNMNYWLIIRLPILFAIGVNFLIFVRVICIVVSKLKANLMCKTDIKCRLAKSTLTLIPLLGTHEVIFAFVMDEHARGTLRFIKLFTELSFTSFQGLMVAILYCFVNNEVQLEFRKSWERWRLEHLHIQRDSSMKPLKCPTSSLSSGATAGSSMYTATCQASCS

Columns and labels:
hGCGR = target: T1, hGCGR (Homo sapiens, UniProt P47871); test: GCGR agonist activity, luciferase reporter gene assay in CHO-K1 cells; type: cell-based; conditions: for EC50: CHO-K1 pCRE-Luc reporter
T1 construct: expressed in transfected cells

db/db mice = test: Random blood glucose in db/db mice after administration; type: in vivo, mouse; conditions: 5.0 nmol/kg/4 days subcutaneous, 30 days
DIO mice = test: Weight loss in diet-induced obesity (DIO) mice; type: in vivo, mouse; conditions: for effects on weight loss compared to Semaglutide: 30 nmol/kg/4 days subcutaneous
ICR mice = test: In vivo IPGTT experiment in normal ICR mice; set-up: species or system mouse; conditions: 10 nmol/kg subcutaneous, glucose 2 g/kg i.p. 2 h later, compared with Semaglutide
hGLP-1R = target: T2, hGLP-1R (Homo sapiens, UniProt P43220); test: GLP-1R agonist activity, luciferase reporter gene assay in CHO-K1 cells; type: cell-based; conditions: for GLP-1R agonist activity relative to natural GLP-1 peptide: % that of natural GLP-1 peptide; for EC50: CHO-K1 pCRE-Luc reporter, 6 hours stimulation
T2 construct: expressed in transfected cells

hGIPR = target: T3, hGIPR (Homo sapiens, UniProt P48546); test: GIPR agonist activity, luciferase reporter gene assay in CHO-K1 cells; type: cell-based; conditions: for GIPR agonist activity relative to natural GIP peptide: % that of natural GIP peptide; for EC50: CHO-K1 pCRE-Luc reporter
T3 construct: expressed in transfected cells
T3 sequence (P48546 22-466): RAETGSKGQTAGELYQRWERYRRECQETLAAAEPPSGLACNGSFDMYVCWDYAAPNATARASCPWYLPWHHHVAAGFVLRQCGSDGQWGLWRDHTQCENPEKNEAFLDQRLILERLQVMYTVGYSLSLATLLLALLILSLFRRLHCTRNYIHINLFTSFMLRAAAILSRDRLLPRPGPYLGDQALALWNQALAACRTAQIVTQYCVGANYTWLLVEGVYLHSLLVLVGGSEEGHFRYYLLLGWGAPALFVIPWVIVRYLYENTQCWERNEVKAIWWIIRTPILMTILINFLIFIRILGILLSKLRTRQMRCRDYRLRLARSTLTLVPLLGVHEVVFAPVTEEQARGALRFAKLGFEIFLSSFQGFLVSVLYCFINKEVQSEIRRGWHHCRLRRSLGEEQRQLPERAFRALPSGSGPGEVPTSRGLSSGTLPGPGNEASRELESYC

Compound | GCGR agonist activity (in words) (hGCGR) | EC50 (hGCGR) | random blood glucose levels (db/db mice) | effects on weight loss compared to Semaglutide (DIO mice) | lowering blood glucose and controlling blood glucose in IPGTT (ICR mice) | GLP-1R agonist activity relative to natural GLP-1 peptide (hGLP-1R) | EC50 (hGLP-1R) | GIPR agonist activity relative to natural GIP peptide (hGIPR) | EC50 (hGIPR) | weight loss proportion at day 30 (DIO mice; 100 nmol/kg/4 days subcutaneous, day 30) | dose dependence of weight loss (DIO mice; 30 and 100 nmol/kg/4 days)
CC(C)C[C@H](NC(=O)[C@H](CC(C)C)NC(=O)[C@H](Cc1c[nH]c2ccccc12)NC(=O)[C@H](CCC(N)=O)NC(=O)[C@@H](NC(=O)[C@H](Cc1ccccc1)NC(=O)[C@H](CC(=O)O)NC(=O)[C@H](CCC(N)=O)NC(=O)[C@H](C)NC(=O)[C@H](C)NC(=O)[C@H](CCC(N)=O)NC(=O)[C@H](CO)NC(=O)[C@H](CC(=O)O)NC(=O)[C@H](CC(C)C)NC(=O)[C@H](Cc1ccc(O)cc1)NC(=O)[C@H](CCCCN)NC(=O)[C@H](CO)NC(=O)[C@H](CCCCNC(=O)COCCOCCNC(=O)COCCOCCNC(=O)CC[C@H](NC(=O)CCCCCCCCCCCCCCCCCCC(=O)O)C(=O)O)NC(=O)[C@H](CC(=O)O)NC(=O)[C@H](CO)NC(=O)[C@@H](NC(=O)[C@H](Cc1ccccc1)NC(=O)[C@@H](NC(=O)CNC(=O)[C@H](CCC(N)=O)NC(=O)C(C)(C)NC(=O)[C@@H](N)Cc1c[nH]cn1)[C@@H](C)O)[C@@H](C)O)C(C)C)C(=O)N[C@@H](C)C(=O)NCC(=O)NCC(=O)N1CCC[C@H]1C(=O)N[C@@H](CO)C(=O)N[C@@H](CO)C(=O)NCC(=O)N[C@@H](C)C(=O)N1CCC[C@H]1C(=O)N1CCC[C@H]1C(=O)N1CCC[C@H]1C(=O)N[C@@H](CO)C(N)=O [P13F, HAibQGT FTSD K (2xOEG-γE-COC18H36COOH) SKYL D SQAAQDFVQWLLAGGPSSGAPPPS-NH2] (H-H[Aib]QGTFTSDK([AEEA-AEEA-γGlu-C20 diacid])SKYLDSQAAQDFVQWLLAGGPSSGAPPPS-NH2) | minimal GCGR agonist activity | > 1000 nM | decreased to normal at day 22, and maintained until day 30 | superior effects on weight loss, compared to Semaglutide | superior in lowering blood glucose and controlling blood glucose, compared with Semaglutide | 1%-3% | 0.9 nM | 0.5%-2% | 220 nM |  | 
CC(C)C[C@H](NC(=O)[C@H](CC(C)C)NC(=O)[C@H](Cc1c[nH]c2ccccc12)NC(=O)[C@H](CCC(N)=O)NC(=O)[C@@H](NC(=O)[C@H](Cc1ccccc1)NC(=O)[C@H](CC(=O)O)NC(=O)[C@H](CCC(N)=O)NC(=O)[C@H](C)NC(=O)[C@H](C)NC(=O)[C@H](CCC(N)=O)NC(=O)[C@H](CO)NC(=O)[C@H](CC(=O)O)NC(=O)[C@H](CC(C)C)NC(=O)C(C)(C)NC(=O)[C@H](CCCCN)NC(=O)[C@H](CO)NC(=O)[C@H](CCCCNC(=O)COCCOCCNC(=O)COCCOCCNC(=O)CC[C@H](NC(=O)CCCCCCCCCCCCCCCCCCC(=O)O)C(=O)O)NC(=O)[C@H](CC(=O)O)NC(=O)[C@H](CO)NC(=O)[C@@H](NC(=O)[C@H](Cc1ccccc1)NC(=O)[C@@H](NC(=O)CNC(=O)[C@H](CCC(N)=O)NC(=O)C(C)(C)NC(=O)[C@@H](N)Cc1c[nH]cn1)[C@@H](C)O)[C@@H](C)O)C(C)C)C(=O)N[C@@H](C)C(=O)NCC(=O)NCC(=O)N1CCC[C@H]1C(=O)N[C@@H](CO)C(=O)N[C@@H](CO)C(=O)NCC(=O)N[C@@H](C)C(=O)N1CCC[C@H]1C(=O)N1CCC[C@H]1C(=O)N1CCC[C@H]1C(=O)N[C@@H](CO)C(N)=O [P16F, HAibQGT FTSD K (2xOEG-γE-COC18H36COOH) SKAibL D SQAAQDFVQWLLAGGPSSGAPPPS-NH2] (H-H[Aib]QGTFTSDK([AEEA-AEEA-γGlu-C20 diacid])SK[Aib]LDSQAAQDFVQWLLAGGPSSGAPPPS-NH2) | minimal GCGR agonist activity | > 1000 nM | decreased to normal at day 22, and maintained until day 30 | superior effects on weight loss, compared to Semaglutide | superior in lowering blood glucose and controlling blood glucose, compared with Semaglutide | 1%-3% | 0.43 nM | 0.5%-2% | 212 nM |  | 
CC(C)C[C@H](NC(=O)[C@H](CC(C)C)NC(=O)[C@H](Cc1c[nH]c2ccccc12)NC(=O)[C@H](CCC(N)=O)NC(=O)[C@@H](NC(=O)[C@H](Cc1ccccc1)NC(=O)[C@H](CC(=O)O)NC(=O)[C@H](CCC(N)=O)NC(=O)[C@H](C)NC(=O)[C@H](C)NC(=O)[C@H](CCC(N)=O)NC(=O)[C@H](CO)NC(=O)[C@H](CC(=O)O)NC(=O)[C@H](CCCCNC(=O)COCCOCCNC(=O)COCCOCCNC(=O)CC[C@H](NC(=O)CCCCCCCCCCCCCCCCCCC(=O)O)C(=O)O)NC(=O)C(C)(C)NC(=O)[C@H](CCCCN)NC(=O)[C@H](CO)NC(=O)[C@H](Cc1ccc(O)cc1)NC(=O)[C@H](CC(=O)O)NC(=O)[C@H](CO)NC(=O)[C@@H](NC(=O)[C@H](Cc1ccccc1)NC(=O)[C@@H](NC(=O)CNC(=O)[C@H](CCC(N)=O)NC(=O)C(C)(C)NC(=O)[C@@H](N)Cc1c[nH]cn1)[C@@H](C)O)[C@@H](C)O)C(C)C)C(=O)N[C@@H](C)C(=O)NCC(=O)NCC(=O)N1CCC[C@H]1C(=O)N[C@@H](CO)C(=O)N[C@@H](CO)C(=O)NCC(=O)N[C@@H](C)C(=O)N1CCC[C@H]1C(=O)N1CCC[C@H]1C(=O)N1CCC[C@H]1C(=O)N[C@@H](CO)C(N)=O [P29F, HAibQGT FTSDY SKAib K (2xOEG-γE-COC18H36COOH) D SQAAQDFVQWLLAGGPSSGAPPPS-NH2] | minimal GCGR agonist activity | 244 nM | decreased to normal at day 22, and maintained until day 30 | superior effects on weight loss, compared to Semaglutide | superior in lowering blood glucose and controlling blood glucose, compared with Semaglutide | 1%-3% | 0.28 nM | 0.5%-2% | 55.6 nM | ~30% | weight loss was dose dependent
